# The other results are listed elsewhere or left out. Most entries show no effect beyond the scatter of the controls.
# By UniProt entry, the sequences of proteins in these tests, tags left out. Where a name states a change or a piece, a line headed by the entry shows the natural chain unless it says otherwise.
# UniProt Q659A1: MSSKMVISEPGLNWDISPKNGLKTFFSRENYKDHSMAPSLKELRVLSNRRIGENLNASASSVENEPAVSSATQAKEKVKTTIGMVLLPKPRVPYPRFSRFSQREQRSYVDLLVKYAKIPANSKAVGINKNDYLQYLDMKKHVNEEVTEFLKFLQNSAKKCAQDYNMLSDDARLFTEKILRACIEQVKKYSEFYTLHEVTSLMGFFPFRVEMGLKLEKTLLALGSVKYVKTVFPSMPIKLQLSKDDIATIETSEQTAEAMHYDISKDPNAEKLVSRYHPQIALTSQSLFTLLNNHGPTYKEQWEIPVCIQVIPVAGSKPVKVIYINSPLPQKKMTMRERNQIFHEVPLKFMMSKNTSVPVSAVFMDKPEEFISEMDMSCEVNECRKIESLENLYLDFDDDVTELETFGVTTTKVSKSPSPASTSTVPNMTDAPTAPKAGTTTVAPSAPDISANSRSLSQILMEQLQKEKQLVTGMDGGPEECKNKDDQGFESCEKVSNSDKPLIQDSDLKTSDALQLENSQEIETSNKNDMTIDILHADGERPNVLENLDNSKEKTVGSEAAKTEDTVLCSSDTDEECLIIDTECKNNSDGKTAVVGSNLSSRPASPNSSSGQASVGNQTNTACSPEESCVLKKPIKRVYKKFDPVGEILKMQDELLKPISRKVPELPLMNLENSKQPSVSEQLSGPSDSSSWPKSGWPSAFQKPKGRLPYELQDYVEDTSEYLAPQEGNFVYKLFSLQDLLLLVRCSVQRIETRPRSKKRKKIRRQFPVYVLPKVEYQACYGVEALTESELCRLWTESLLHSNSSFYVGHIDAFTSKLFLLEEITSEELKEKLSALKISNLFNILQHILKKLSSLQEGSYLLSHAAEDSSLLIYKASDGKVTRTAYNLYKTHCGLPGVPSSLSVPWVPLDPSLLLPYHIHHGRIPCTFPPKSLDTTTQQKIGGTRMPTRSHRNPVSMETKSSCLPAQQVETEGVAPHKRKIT
# UniProt Q6DKK2: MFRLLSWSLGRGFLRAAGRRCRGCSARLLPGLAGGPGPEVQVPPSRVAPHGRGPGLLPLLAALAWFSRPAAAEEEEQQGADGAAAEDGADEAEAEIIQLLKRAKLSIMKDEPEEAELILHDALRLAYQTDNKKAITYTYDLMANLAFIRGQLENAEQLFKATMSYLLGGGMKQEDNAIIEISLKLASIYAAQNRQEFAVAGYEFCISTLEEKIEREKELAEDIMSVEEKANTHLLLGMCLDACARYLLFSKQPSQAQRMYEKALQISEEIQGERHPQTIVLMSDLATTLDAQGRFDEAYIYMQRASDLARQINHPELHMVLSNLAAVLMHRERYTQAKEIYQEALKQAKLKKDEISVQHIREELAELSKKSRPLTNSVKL
# UniProt Q6AWC2, whole entry: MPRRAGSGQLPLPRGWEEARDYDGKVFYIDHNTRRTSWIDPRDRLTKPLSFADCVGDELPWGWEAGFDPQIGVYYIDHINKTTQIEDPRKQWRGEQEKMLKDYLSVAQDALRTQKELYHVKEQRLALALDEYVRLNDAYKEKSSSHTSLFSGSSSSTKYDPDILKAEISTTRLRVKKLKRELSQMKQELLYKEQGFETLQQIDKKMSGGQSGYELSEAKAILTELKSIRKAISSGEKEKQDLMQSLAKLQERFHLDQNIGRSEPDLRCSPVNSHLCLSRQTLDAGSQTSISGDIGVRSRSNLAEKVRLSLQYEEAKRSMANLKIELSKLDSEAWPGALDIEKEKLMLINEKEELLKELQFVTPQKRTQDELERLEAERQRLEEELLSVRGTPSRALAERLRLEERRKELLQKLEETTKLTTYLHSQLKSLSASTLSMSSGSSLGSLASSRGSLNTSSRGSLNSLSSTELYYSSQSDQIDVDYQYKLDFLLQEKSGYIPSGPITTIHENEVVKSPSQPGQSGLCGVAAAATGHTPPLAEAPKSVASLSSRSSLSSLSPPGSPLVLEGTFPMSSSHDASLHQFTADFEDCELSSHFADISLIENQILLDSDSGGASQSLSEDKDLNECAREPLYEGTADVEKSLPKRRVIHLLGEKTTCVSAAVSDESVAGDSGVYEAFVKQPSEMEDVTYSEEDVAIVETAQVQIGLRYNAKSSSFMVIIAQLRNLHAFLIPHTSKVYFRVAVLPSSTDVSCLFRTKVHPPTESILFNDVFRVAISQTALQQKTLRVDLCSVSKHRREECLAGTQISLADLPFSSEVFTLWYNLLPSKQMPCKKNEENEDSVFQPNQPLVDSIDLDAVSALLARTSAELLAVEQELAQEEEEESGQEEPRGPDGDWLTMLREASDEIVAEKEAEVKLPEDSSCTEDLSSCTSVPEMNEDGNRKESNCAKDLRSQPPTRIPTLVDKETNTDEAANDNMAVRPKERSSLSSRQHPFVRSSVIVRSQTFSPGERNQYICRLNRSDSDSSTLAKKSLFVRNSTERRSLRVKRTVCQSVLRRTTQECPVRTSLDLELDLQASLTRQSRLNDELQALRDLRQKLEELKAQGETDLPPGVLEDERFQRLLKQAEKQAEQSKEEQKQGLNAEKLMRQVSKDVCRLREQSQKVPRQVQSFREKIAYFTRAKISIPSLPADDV
# UniProt Q5XKK7: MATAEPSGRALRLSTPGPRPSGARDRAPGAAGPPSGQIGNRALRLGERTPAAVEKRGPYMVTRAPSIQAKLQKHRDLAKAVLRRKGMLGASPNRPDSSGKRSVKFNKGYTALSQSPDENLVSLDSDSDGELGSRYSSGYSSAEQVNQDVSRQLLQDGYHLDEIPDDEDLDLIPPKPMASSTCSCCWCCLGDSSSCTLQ
# UniProt Q6XZF7: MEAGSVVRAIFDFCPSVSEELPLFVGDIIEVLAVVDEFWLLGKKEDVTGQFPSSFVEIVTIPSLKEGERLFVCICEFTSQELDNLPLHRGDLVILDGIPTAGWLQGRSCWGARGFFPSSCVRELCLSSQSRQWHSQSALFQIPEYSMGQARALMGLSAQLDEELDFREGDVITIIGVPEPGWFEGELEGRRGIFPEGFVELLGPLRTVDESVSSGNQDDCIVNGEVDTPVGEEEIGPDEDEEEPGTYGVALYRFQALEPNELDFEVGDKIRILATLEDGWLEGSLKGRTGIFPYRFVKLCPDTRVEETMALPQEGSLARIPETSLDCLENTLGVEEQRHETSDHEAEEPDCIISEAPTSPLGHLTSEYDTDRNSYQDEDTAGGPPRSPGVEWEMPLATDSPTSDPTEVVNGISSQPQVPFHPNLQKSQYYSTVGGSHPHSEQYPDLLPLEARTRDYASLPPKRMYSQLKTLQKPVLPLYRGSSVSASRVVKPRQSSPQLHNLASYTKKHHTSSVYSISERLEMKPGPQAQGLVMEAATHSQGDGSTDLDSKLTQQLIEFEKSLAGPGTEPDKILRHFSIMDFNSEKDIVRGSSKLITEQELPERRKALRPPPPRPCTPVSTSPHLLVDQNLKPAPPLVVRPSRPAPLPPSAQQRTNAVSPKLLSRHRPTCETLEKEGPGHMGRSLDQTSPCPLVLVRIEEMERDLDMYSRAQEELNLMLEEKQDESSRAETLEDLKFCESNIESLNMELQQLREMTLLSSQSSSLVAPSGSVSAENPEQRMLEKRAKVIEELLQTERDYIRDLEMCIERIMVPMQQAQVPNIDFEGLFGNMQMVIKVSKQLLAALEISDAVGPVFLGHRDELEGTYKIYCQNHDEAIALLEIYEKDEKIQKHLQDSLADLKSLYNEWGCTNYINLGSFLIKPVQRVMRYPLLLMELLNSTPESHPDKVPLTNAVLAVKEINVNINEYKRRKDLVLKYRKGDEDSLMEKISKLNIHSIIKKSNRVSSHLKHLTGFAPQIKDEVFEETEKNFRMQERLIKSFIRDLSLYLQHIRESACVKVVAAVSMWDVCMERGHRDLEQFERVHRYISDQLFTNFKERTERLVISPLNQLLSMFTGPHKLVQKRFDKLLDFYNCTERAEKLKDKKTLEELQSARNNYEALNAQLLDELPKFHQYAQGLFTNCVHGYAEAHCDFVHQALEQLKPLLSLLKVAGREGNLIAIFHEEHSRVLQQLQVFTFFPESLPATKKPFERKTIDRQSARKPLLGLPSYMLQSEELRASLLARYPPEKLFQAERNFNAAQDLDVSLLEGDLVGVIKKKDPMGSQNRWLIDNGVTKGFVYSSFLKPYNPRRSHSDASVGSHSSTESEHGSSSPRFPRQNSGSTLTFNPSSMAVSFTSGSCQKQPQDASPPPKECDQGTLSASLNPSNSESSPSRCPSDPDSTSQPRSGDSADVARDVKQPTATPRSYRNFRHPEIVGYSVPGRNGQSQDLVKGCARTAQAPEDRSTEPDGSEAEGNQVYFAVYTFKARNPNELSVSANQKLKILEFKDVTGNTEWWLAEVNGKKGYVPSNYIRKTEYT
# UniProt Q68CQ4: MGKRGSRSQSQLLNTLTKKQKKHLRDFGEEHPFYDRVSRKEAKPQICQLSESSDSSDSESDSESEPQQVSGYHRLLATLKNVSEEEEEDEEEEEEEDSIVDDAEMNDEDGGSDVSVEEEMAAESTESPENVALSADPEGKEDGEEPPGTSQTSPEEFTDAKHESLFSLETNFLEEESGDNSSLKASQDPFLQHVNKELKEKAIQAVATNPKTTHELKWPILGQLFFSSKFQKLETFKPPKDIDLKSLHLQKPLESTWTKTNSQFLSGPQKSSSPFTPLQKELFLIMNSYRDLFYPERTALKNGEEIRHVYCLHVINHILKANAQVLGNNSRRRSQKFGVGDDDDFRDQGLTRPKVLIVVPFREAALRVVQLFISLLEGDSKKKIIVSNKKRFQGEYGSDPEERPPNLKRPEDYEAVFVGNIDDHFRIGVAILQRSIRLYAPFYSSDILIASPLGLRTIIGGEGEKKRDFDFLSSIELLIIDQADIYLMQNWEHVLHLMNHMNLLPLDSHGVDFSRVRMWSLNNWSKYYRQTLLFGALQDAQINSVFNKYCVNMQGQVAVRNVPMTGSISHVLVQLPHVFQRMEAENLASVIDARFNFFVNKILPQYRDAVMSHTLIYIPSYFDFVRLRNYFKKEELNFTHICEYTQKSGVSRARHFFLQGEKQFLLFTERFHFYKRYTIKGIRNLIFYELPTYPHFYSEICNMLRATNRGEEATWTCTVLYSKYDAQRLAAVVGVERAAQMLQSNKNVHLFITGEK
# UniProt Q6PI26: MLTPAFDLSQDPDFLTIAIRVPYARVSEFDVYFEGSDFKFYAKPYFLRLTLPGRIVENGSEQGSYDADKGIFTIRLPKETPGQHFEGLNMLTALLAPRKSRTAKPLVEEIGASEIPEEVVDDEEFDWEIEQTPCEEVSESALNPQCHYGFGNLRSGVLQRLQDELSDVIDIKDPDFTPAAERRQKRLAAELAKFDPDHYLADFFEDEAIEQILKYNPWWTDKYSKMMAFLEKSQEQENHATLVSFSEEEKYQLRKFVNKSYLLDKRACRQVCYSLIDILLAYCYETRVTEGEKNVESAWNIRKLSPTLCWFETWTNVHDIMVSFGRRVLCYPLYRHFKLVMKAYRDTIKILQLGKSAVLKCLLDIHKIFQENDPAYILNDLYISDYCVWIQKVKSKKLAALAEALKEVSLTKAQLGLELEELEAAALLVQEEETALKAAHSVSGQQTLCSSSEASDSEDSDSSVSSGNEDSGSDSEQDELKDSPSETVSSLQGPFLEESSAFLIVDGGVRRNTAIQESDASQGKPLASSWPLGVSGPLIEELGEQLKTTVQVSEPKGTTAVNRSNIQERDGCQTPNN
# UniProt Q6IN85: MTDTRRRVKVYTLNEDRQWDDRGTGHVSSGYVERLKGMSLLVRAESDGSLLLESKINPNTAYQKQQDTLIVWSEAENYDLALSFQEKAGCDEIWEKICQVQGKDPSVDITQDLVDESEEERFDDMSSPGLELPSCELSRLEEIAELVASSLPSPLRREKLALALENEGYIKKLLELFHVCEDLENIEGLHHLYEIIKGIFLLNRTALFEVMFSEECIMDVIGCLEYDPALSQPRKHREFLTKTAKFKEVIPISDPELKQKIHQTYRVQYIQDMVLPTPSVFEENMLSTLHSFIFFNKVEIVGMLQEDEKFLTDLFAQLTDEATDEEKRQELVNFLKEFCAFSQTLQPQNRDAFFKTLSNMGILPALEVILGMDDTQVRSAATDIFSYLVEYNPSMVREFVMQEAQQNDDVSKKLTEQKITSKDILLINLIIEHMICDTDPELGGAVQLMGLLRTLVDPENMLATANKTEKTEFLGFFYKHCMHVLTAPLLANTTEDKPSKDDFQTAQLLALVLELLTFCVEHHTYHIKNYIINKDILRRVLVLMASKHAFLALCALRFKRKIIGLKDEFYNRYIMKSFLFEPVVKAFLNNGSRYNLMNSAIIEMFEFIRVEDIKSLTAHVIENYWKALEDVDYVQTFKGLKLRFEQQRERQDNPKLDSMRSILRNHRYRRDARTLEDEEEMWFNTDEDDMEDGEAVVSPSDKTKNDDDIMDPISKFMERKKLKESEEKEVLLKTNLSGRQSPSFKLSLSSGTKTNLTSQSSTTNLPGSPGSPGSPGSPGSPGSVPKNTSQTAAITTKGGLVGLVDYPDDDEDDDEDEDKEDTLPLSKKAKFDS
# Compound: CN[C@@H]1C[C@H]2O[C@@](C)([C@@H]1OC)n1c3ccccc3c3c4c(c5c6ccccc6n2c5c31)C(=O)NC4 [staurosporine]
# Experiment: log2 fold change of tryptic peptide abundance, ligand vs vehicle (limited proteolysis) (log2 ratio); higher = more trypsin-susceptible (destabilized)
# Conditions: ligand concentration: 20 uM; sample: K562 cleared lysate; digestion: 4 min, 22 C (HT-PELSA RT4min, Orbitrap Astral)
row,Target,log2 fold change
1,"UniProt Q659A1 (peptide sequence: NPVSMETK, peptide start residue: 953)",-0.45
2,"NEK5 (peptide sequence: SCCPGWSAMAR, peptide start residue: 529) (UniProt Q6P3R8)",-0.416
3,"ZYG11A (peptide sequence: ILVDVPFDRFDAAK, peptide start residue: 456) (UniProt Q6WRX3)",-0.419
4,"SMARCD3 (peptide sequence: KLDQTIMR, peptide start residue: 156) (UniProt Q6STE5)",0.101
5,"LLGL2 (peptide sequence: LVAFGTSHGFGLFDHQQR, peptide start residue: 602) (UniProt Q6P1M3)",-0.715
6,"UniProt Q5VZ66 (peptide sequence: EQLQAEVQR, peptide start residue: 537)",0.368
7,"UniProt Q6P582 (peptide sequence: QPSATRLPK, peptide start residue: 137)",0.461
8,"TMEM214 (peptide sequence: KGSSNNQDVVTCDMACK, peptide start residue: 453) (UniProt Q6NUQ4)",0.21
9,"PPP2R2D (peptide sequence: AEGYNLKDEDGR, peptide start residue: 137) (UniProt Q66LE6)",-0.223
10,"AAGAB (peptide sequence: DKAATLPHEQRK, peptide start residue: 274) (UniProt Q6PD74)",0.987
11,"KLHL17 (peptide sequence: DFLLGHVDAESLVR, peptide start residue: 289) (UniProt Q6TDP4)",0.382
12,"REEP3 (peptide sequence: GYETMVNFGR, peptide start residue: 114) (UniProt Q6NUK4)",-0.216
13,"PMF1 (peptide sequence: KEPAWRPSGIPEK, peptide start residue: 119) (UniProt Q6P1K2)",-0.332
14,"UniProt Q6ECI4 (peptide sequence: VHTGEKPYECIECGK, peptide start residue: 333)",0.714
15,"NIPBL (peptide sequence: TGVHFHPK, peptide start residue: 2584) (UniProt Q6KC79)",0.96
16,"UniProt Q6NT16 (peptide sequence: SQNILSTEEER, peptide start residue: 438)",-0.135
17,"MPRIP (peptide sequence: EASDLLEQNR, peptide start residue: 689) (UniProt Q6WCQ1)",-0.422
18,"UniProt Q6P9H4 (peptide sequence: KRPTGSFNFTPAPLK, peptide start residue: 291)",-0.00114
19,"TTC19 (peptide sequence: EIYQEALK, peptide start residue: 339) (UniProt Q6DKK2)",-0.402
20,"BLOC1S2 (peptide sequence: DIAINISR, peptide start residue: 82) (UniProt Q6QNY1)",-0.275
21,"CASC1 (peptide sequence: LLQEEEER, peptide start residue: 377) (UniProt Q6TDU7)",-0.0315
22,"WWC2 (peptide sequence: LALALDEYVR, peptide start residue: 125) (UniProt Q6AWC2)",-0.264
23,"FAM219B (peptide sequence: DRAPGAAGPPSGQIGNR, peptide start residue: 25) (UniProt Q5XKK7)",-0.124
24,"DNMBP (peptide sequence: LLDFYNCTER, peptide start residue: 1128) (UniProt Q6XZF7)",-0.591
25,"UniProt Q68DI1 (peptide sequence: EGPYVCSDSGK, peptide start residue: 233)",-0.197
26,"UniProt Q68CQ4 (peptide sequence: ASQDPFLQHVNKELK, peptide start residue: 185)",0.386
27,"RPL7L1 (peptide sequence: IERIDGVSLLVQR, peptide start residue: 102) (UniProt Q6DKI1)",0.182
28,"SHQ1 (peptide sequence: MMAFLEK, peptide start residue: 226) (UniProt Q6PI26)",-0.146
29,"UniProt Q6IN85 (peptide sequence: LKGMSLLVR, peptide start residue: 35)",0.192

# A few values from the list.
# log2 fold change with UniProt Q68CQ4 (peptide sequence: ASQDPFLQHVNKELK, peptide start residue: 185) is entered as 0.386
# log2 fold change with CASC1 (peptide sequence: LLQEEEER, peptide start residue: 377) (UniProt Q6TDU7) is entered as -0.0315

# From the supplement of paper PMC12819154, “High-throughput peptide-centric local stability assay extends protein–ligand identification to membrane proteins, tissues and bacteria” (Nature Structural & Molecular Biology, 2025)
